No constants are given. Whether binding was seen depends on the method and setting. In cells and extracts the contact can be indirect. These calls come from enrichment with a bait or labelling near it, and not all partners need be listed. Sequences can lack the tags named with a protein.
B1: protein phosphatase 1B (Ppm1b) (protein, UniProt P36993 1-390)
chain: MGAFLDKPKTEKHNAHGAGNGLRYGLSSMQGWRVEMEDAHTAVVGIPHGLDNWSFFAVYDGHAGSRVANYCSTHLLEHITTNEDFRAADKSGSALEPSVESVKTGIRTGFLKIDEYMRNFSDLRNGMDRSGSTAVGVMVSPTHMYFINCGDSRAVLCRNGQVCFSTQDHKPCNPVEKERIQNAGGSVMIQRVNGSLAVSRALGDYDYKCVDGKGPTEQLVSPEPEVYEIVRAEEDEFVVLACDGIWDVMSNEELCEFVKSRLEVSDDLENVCNWVVDTCLHKGSRDNMSVVLVCFSNAPKVSEEAVKRDSELDKHLESRVEEIMQKSGEEGMPDLAHVMRILSAENIPNLPPGGGLAGKRHVIEAVYSRLNPHKDNDGGAGDLEDSLVAL
B2: UTP--glucose-1-phosphate uridylyltransferase (protein, UniProt Q91ZJ5 1-508)
chain: MSRFVQDLSKAMSQDGASQFQEVILQELELSVKKELEKILTTAASHEFEHTKKDLDGFRKLFHRFLQEKGPSVDWGKIQRPPEDSIQPYEKIKARGLPDNISSVLNKLVVVKLNGGLGTSMGCKGPKSLIGVRNENTFLDLTVQQIEHLNKTYNTDVPLVLMNSFNTDEDTKKILQKYNHCRVKIYTFNQSRYPRINKESLLPIAKDVSYSGENTEAWYPPGHGDIYASFYNSGLLDTFIEEGKEYIFVSNIDNLGATVDLYILNHLMNPPNGKRCEFVMEVTNKTRADVKGGTLTQYEGKLRLVEIAQVPKAHVDEFKSVSKFKIFNTNNLWISLGAVKRLQEQNAIDMEIIVNPKTLDGGLNVIQLETAVGAAIKSFENSLGINVPRSRFLPVKTTSDLLLVMSNLYSLNAGSLTMSEKREFPTVPLVKLGSSFTKVQDYLRRFESIPDMLELDHLTVSGDVTFGKNVSLKGTVIIIANHGDRIDIPPGAVLENKIVSGNLRILDH
B3: Caveolae-associated protein 2 (protein, UniProt Q63918 1-418)
chain: MGEDAAQAEKFQHPNTDMLQEKPSSPSPMPSSTPSPSLNLGSTEEAIRDNSQVNAVTVHTLLDKLVNMLDAVRENQHNMEQRQINLEGSVKGIQNDLTKLSKYQASTSNTVSKLLEKSRKVSAHTRAVRERLERQCVQVKRLENNHAQLLRRNHFKVLIFQEESEIPASVFVKEPVPSAAEGKEELADENKSLEETLHNVDLSSDDELPRDEEALEDSAEEKMEESRAEKIKRSSLKKVDSLKKAFSRQNIEKKMNKLGTKIVSVERREKIKKSLTPNHQKASSGKSSPFKVSPLSFGRKKVREGESSVENETKLEDQMQEDREEGSFTEGLSEASLPSGLMEGSAEDAEKSARRGNNSAVGSNADLTIEEDEEEEPVALQQAQQVRYESGYMLNSEEMEEPSEKQVQPAVLHVDQTA
B4: C- > U-editing enzyme APOBEC-2 (protein, UniProt Q9WV35 1-224)
chain: MAQKEEAAEAAAPASQNGDDLENLEDPEKLKELIDLPPFEIVTGVRLPVNFFKFQFRNVEYSSGRNKTFLCYVVEVQSKGGQAQATQGYLEDEHAGAHAEEAFFNTILPAFDPALKYNVTWYVSSSPCAACADRILKTLSKTKNLRLLILVSRLFMWEEPEVQAALKKLKEAGCKLRIMKPQDFEYIWQNFVEQEEGESKAFEPWEDIQENFLYYEEKLADILK
B5: FAS-associated factor 1 (protein, UniProt P54731 1-649)
chain: MASNMDREMILADFQACTGIENIDEAITLLEQNNWDLVAAINGVIPQENGILQSDFGGETMPGPTFDPASHPAPASTPSSSAFRPVMPSRQIVERQPRMLDFRVEYRDRNVDVVLEDSCTVGEIKQILENELQIPVPKMLLKGWKTGDVEDSTVLKSLHLPKNNSLYVLTPDLPPPSSSSHAGALQESLNQNFMLIITHREVQREYNLNFSGSSTVQEVKRNVYDLTSIPVRHQLWEGWPASATDDSMCLAESGLSYPCHRLTVGRRTSPVQTREQSEEQSTDVHMVSDSDGDDFEDASEFGVDDGEVFGMASSTLRKSPMMPENAENEGDALLQFTAEFSSRYGDCHPVFFIGSLEAAFQEAFYVKARDRKLLAIYLHHDESVLTNVFCSQMLCAESIVSYLSQNFITWAWDLTKDTNRARFLTMCNRHFGSVIAQTIRTQKTDQFPLFLIIMGKRSSNEVLNVIQGNTTVDELMMRLMAAMEIFSAQQQEDIKDEDEREARENVKREQDEAYRLSLEADRAKREAHEREMAEQFRLEQIRKEQEEEREAIRLSLEQALPPEPKEENAEPVSKLRIRTPSGEFLERRFLASNKLQIVFDFVASKGFPWDEFKLLSTFPRRDVTQLDPNKSLLEVNLFPQETLFLQAKE
B6: Uncharacterized protein C3orf30 homolog (protein, UniProt A6X8Z9 1-381)
chain: MDEPPDESLNHENTTRAPDNEKNNIEGAGQALHRGSEHAGVGSSEPTGDKVSGQANAGSRQTGRRTSEEAEQRSSQPTEHRLPGHAERRASQQAERRLSERRTSQPPNQQLPSHSERKTSGKIDGQESLLSEQTDQETSEFDDLIPSASTDYLSARSQQQEYNQHGYWTEDSSDPHRLSEDLEKDYTRVKHITEKQAGYRSYYKTLAHIESRTLTDTNDYRETGQRLQPCTFEDSEAELPSKVSTTEETESATTIQAYNTQDTELTTSTSHEKLPSITTKVYYSSSPEKIQTTEYTSDTTPVFDQGRSSQRSSQSSRWRFPPIVFEDPYHVALRYVEKHNILHIFQQITENLVYERPDDPLYFMLDQVQNMIKHRDERQSD
B7: N6-adenosine-methyltransferase subunit METTL14 (protein, UniProt Q3UIK4 1-456)
chain: MDSRLQEIRERQKLRRQLLAQQLGAESADSIGAVLNSKDEQREIAETRETCRASYDTSAPNSKRKCLDEGETDEDKVEEYKDELEMQQEEENLPYEEEIYKDSSTFLKGTQSLNPHNDYCQHFVDTGHRPQNFIRDVGLADRFEEYPKLRELIRLKDELIAKSNTPPMYLQADIEAFDIRELTPKFDVILLEPPLEEYYRETGITANEKCWTWDDIMKLEIDEIAAPRSFIFLWCGSGEGLDLGRVCLRKWGYRRCEDICWIKTNKNNPGKTKTLDPKAVFQRTKEHCLMGIKGTVKRSTDGDFIHANVDIDLIITEEPEIGNIEKPVEIFHIIEHFCLGRRRLHLFGRDSTIRPGWLTVGPTLTNSNYNAETYASYFSAPNSYLTGCTEEIERLRPKSPPPKSKSDRGGGAPRGGGRGGTSAGRGRERNRSNFRGERGGFRGGRGGTHRGGFTPR
B8: NEDD8-conjugating enzyme Ubc12 isoform 1 (protein, UniProt P61082 1-183)
chain: MIKLFSLKQQKKEEESAGGTKGSSKKASAAQLRIQKDINELNLPKTCDISFSDPDDLLNFKLVICPDEGFYKSGKFVFSFKVGQGYPHDPPKVKCETMVYHPNIDLEGNVCLNILREDWKPVLTINSIIYGLQYLFLEPNPEDPLNKEAAEVLQNNRRLFEQNVQRSMRGGYIGSTYFERCLK
B9: Protein DJ-1 (protein, UniProt Q99LX0 1-189)
chain: MASKRALVILAKGAEEMETVIPVDVMRRAGIKVTVAGLAGKDPVQCSRDVMICPDTSLEDAKTQGPYDVVVLPGGNLGAQNLSESPMVKEILKEQESRKGLIAAICAGPTALLAHEVGFGCKVTTHPLAKDKMMNGSHYSYSESRVEKDGLILTSRGPGTSFEFALAIVEALVGKDMANQVKAPLVLKD
B10: Kelch-like protein 41 (protein, UniProt A2AUC9 1-606)
chain: MDSQRELAEELRLYQSTLLQDGLKDLLEEKKFIDCTLKAGDKSFPCHRLILSACSPYFREYFLSEIEEEKKKEVALDNVDPAILDLIIKYLYSASIDLNDGNVQDIFALSSRFQIPSVFTVCVSYLQKRLAPGNCLAILRLGLLLDCPRLAISAREFVSDRFVQICKEEDFMQLSPQELISVISNDSLNVEKEEVVFEAVMKWVRTDKENRAKNLSEVFDCIRFRLMAEKYFKDHVEKDDIIKSNPEVQKKIKVLKDAFAGKLPEPSKNAEKAGAGEVNGDVGDEDLLPGYLNDIPRHGMFVKDLILLVNDTAAVAYDPMENECYLTALAEQIPRNHSSLVTQQNQVYVVGGLYVDEENKDQPLQSYFFQLDNVTSEWVGLPPLPSARCLFGLGEVDDKIYVVAGKDLQTEASLDSVLCYDPVAAKWSEVKNLPIKVYGHNVISHNGMIYCLGGKTDDKKCTNRVFIYNPKKGDWKDLAPMKTPRSMFGVAIHKGKIVIAGGVTEDGLSASVEAFDLKTNKWEVMTEFPQERSSISLVSLAGALYAIGGFAMIQLESKEFAPTEVNDIWKYEDDKKEWAGMLKEIRYASGASCLATRLNLFKLSKL

The chains behind the UniProt entries cited, without tags or fusion partners. Residues count along the entry.
UniProt P48678, residues 1-647: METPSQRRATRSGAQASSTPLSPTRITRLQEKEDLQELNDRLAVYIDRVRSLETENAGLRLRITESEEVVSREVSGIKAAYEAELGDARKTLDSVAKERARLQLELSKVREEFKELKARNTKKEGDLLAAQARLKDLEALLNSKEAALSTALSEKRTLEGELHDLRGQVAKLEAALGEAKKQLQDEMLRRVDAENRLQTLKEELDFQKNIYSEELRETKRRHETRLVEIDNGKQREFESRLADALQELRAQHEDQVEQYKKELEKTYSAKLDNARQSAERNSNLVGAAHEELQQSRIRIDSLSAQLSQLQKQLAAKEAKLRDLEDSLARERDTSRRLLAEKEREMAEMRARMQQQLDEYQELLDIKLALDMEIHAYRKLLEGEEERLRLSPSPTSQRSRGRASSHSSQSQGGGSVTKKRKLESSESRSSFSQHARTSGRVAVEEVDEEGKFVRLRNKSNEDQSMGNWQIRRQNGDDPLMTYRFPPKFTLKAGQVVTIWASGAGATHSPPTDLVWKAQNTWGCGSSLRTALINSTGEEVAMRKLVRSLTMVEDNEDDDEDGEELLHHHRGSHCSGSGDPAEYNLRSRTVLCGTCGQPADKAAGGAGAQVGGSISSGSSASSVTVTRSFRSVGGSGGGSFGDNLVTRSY

target: native lamin A/C (mouse (endogenous in heart, skeletal muscle and brain)) (UniProt P48678); assay: affinity purification with mass spectrometry; native lamin A/C immunoprecipitated with mAb 4C11 and Protein G Sepharose from sonicated skeletal muscle lysates of old IL10-KO and control C57Bl/6 female mice (five each); 50 mM Tris pH 7.4, 300 mM NaCl, 0.3% Triton X-100, 4°C; TMT 10-plex

Question: For B1, which binding is on record?
Answer: The binding was “binds”.

Question: With B2 as the binder, how does the binding read?
Answer: The binding was “binds”.

Question: B3 was tested. Which binding did it give?
Answer: The binding was “binds”.

Question: How did the binding turn out when B4 was run?
Answer: The binding was “binds”.

Question: Which binding does the source give for B5 here?
Answer: Its binding is “binds”.

Question: How did the binding turn out when B6 was run?
Answer: The binding was “binds”.

Question: With B7 as the binder, how does the binding read?
Answer: The binding was “binds”.

Question: How did the binding turn out when B8 was run?
Answer: The binding was “binds”.

Question: For B9, which binding is on record?
Answer: Its binding is “binds”.

Question: How did the binding turn out when B10 was run?
Answer: The binding was “binds”.

From paper PMC10626543
